The source of these data is publication PMC6135860 (Neuropsychopharmacology, 2018).

The test system of data set [1] is PDE4 binding sites in wild-type mouse brain membranes. Briefly: [3H]-rolipram radioligand binding to brain membranes.
Data set [2] deals with PDE4 binding sites in humanized PDE4D mouse brain membranes. The data set is described as above. The settings on record: for Hill slope: hPDE4D.

For `COc1ccc(C2CNC(=O)C2)cc1OC1CCCC1` (centres unmarked) [Rolipram], the values for the Hill slope in data set [1] and in data set [2] were −0.75 ± 0.08 and −0.71 ± 0.02, respectively.
`O=C(O)Cc1ccc(Cc2cc(-c3cccc(Cl)c3)nc(C(F)(F)F)c2)cc1` [BPN14770]: the Hill slope (in general, a measure of the steepness of the concentration-response curve) in data set [1] is reported as −0.89 ± 0.06; in data set [2], −0.56 ± 0.02. The “share of total binding accounted for by high affinity Ki1 sites” value in data set [2] (humanized PDE4D mice) is on record as 26.7%.
